The results in this text go back to US20100279312A1.

Protein sequences, listed by entry. Tags and fused reporters are not part of them.
UniProt Q76N89: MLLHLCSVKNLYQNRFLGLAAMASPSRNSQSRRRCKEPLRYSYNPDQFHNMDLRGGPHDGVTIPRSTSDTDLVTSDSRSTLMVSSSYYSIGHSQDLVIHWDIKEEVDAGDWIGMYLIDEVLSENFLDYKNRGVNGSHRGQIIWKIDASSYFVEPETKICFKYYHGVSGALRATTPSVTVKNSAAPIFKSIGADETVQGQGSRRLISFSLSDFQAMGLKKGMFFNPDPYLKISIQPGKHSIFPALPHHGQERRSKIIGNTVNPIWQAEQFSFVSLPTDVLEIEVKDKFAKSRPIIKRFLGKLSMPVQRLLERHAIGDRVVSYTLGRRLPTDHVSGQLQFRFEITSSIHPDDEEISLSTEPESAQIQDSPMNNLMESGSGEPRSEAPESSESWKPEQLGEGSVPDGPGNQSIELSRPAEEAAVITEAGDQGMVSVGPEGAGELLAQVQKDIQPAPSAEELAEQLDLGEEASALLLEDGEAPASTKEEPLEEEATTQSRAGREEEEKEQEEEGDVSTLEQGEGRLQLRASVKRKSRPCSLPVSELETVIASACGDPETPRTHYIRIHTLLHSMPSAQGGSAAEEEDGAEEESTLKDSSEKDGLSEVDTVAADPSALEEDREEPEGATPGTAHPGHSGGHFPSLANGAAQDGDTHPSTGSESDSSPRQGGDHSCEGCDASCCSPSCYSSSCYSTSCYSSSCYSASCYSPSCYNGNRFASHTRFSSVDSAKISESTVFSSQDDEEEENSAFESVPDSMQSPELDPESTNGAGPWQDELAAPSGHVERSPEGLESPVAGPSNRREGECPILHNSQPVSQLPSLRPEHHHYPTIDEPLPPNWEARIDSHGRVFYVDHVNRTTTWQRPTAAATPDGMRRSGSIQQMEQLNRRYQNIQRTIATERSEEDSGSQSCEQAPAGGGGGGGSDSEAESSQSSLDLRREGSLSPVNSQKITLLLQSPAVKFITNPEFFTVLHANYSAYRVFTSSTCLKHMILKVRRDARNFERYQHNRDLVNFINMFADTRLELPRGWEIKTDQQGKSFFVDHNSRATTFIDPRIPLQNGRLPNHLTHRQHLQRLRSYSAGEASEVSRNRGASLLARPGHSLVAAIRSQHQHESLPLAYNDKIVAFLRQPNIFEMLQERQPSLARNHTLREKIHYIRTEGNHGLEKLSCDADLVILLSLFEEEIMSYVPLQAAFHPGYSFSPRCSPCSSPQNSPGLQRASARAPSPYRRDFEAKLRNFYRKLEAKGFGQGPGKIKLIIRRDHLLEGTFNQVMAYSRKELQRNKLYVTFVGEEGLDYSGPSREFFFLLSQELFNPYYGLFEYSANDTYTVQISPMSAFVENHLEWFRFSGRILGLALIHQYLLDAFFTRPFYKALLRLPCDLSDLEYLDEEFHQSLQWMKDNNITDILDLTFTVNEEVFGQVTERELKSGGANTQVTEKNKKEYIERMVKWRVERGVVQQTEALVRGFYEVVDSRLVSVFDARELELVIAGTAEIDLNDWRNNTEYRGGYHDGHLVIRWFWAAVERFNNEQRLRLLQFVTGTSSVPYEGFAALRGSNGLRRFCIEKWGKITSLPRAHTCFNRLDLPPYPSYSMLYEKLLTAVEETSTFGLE

The experiment concerns the target p53 of U2OS cells (human) (UniProt P04637). Kind of experiment: co-immunoprecipitation with anti-NEDL1 antibody from cytoplasmic and nuclear fractions of Xpress-NEDL1-transfected U2OS cells with or without cisplatin, then Western blotting. A general note: Immunoblotting shows a protein as a band on a membrane.

These are yes or no findings as the source states them, for the method shown. In cells and extracts the contact can be indirect. Some entries that bind do so weakly or less than the wild type.

Consider “Xpress-tagged NEDL1 (from UniProt Q76N89 1-1606) (enzyme)”, for which the binding entry is “binds”.
